# In PubChem BioAssay AID485349 (National Center for Advancing Translational Sciences (NCATS), 2010):
# Hit rate of the full screen: of about 320,000 compounds, about 620 (0.19%) were called active. Inconclusive means that the source gave no clear call. Such entries were picked first, then a sample of the others. Calls follow the shape of the dose curve; as a rule, active = well fitted activation curve with a large enough effect; inconclusive = small, poorly fitted or top-dose-only effect; inactive = no such curve, though single readings can be large or run the other way. Potencies beside an inconclusive call are fits to weak or partial responses and may not hold up.
# Test: qHTS Assay for Identifying a Potential Treatment of Ataxia-Telangiectasia; also: nearly all actives have a fitted effect of over 45% in size
# Conditions: […] A-T fibroblasts, KAP-1 phosphorylation AlphaLISA, neocarzinostatin DNA damage 30 min before lysis; series mostly up to 57.5 µM
# Outline: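 hTERT-immortalized A-T patient fibroblasts ([…]), 500 cells/well in OPTI-MEM, 1% FBS, got compounds for 60 min, then NCS for 30 min at 37C. Lysates were then assayed for phospho-KAP-1 by AlphaLISA (anti-pKAP1 donor, anti-KAP1 acceptor beads), 6 hr at 25C.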
# Potency is read from the fitted curve at half-maximal effect.
row,SMILES,Potency
1,CCN1c2ccccc2-c2nc3ccccc3n2C1c1cccs1 (centres undefined),"inconclusive: 35.5 µM [activator, partial curve]"
2,O=[N+]([O-])c1cccc2c(S(=O)(=O)N3CCOCC3)cccc12,"inconclusive: 1.41 µM [activator, partial curve]"
3,Cc1cccc(C)c1OCC(=O)NNC(=O)CNC(=O)c1ccc(OC(F)F)cc1,"inconclusive: 0.631 µM [activator, partial curve, poor fit]"
4,COc1ccc2nc(C)cc(N/N=C/c3cccc(OC)c3O)c2c1,inactive
5,CSc1nc(C)cc(C)c1S(=O)(=O)c1ccccc1C,inactive
6,CCCc1cc(=O)oc2c3c(cc(OCC(=O)NCc4ccncc4)c12)OC(C)(C)CC3,inactive
7,CC1CCN(c2ccccc2NC(=O)c2ccc(Br)o2)CC1,"inconclusive: 35.5 µM [activator, single point]"
8,CCc1cc(-c2n[nH]c(C)c2-c2nc3ccccc3s2)c(O)cc1OCC(=O)NN,"inconclusive: 3.16 µM [activator, partial curve]"
9,CC(C)C[C@H](NC(=O)c1[nH]cnc1C(=O)N[C@@H](C)c1ccccc1)C(=O)OCc1ccccc1,"inconclusive: 39.8 µM [activator, partial curve, poor fit]"
10,COc1ccc(O)c(C(=O)c2cnn(-c3ccccc3)c2)c1,inactive
11,CS(=O)(=O)N1CCN(C(=O)CCC2CCCC2)CC1,"inconclusive: 1.41 µM [activator, full curve, poor fit]"
12,CCCCCCCc1nc2nc(C)c(Br)c(=O)n2[nH]1,"inconclusive: 39.8 µM [activator, partial curve, poor fit]"
13,Cn1c(=N)n(CC(=O)c2ccc(Cl)c(Cl)c2)c2ccccc21,active: 28.2 µM
14,C[C@@H](C(=O)N1CCN(C(=O)OC(C)(C)C)CC1)n1cc(-c2cn([C@@H](C)C(=O)N3CCN(C(=O)OC(C)(C)C)CC3)nn2)nn1,active: 22.4 µM
15,COC(=O)/C(=C/c1cccnc1)NC(=O)c1ccccc1,inactive
16,C(=C\c1ccco1)/C1=NN(c2ccccc2)C(c2ccco2)C1 (centres undefined),active: 31.6 µM
17,CCn1cc(C(=O)NCc2ccc(C)cc2)c(=O)c2cc(S(=O)(=O)N(C)C)ccc21,"inconclusive: 3.98 µM [activator, partial curve]"
18,COc1ccccc1N1CN(CCc2ccccc2)CNC1=S,"inconclusive: 1.12 µM [activator, full curve]"
19,Brc1ccc(OCCCCN2CCCCC2)cc1,"inconclusive: 4.47 µM [activator, single point]"

# Arranged by molar mass (rising): 3 of the compounds above.
row,SMILES,Potency
4,COc1ccc2nc(C)cc(N/N=C/c3cccc(OC)c3O)c2c1,inactive
8,CCc1cc(-c2n[nH]c(C)c2-c2nc3ccccc3s2)c(O)cc1OCC(=O)NN,"inconclusive: 3.16 µM [activator, partial curve]"
9,CC(C)C[C@H](NC(=O)c1[nH]cnc1C(=O)N[C@@H](C)c1ccccc1)C(=O)OCc1ccccc1,"inconclusive: 39.8 µM [activator, partial curve, poor fit]"
